Patent US20230391826A1, “COMPOSITIONS AND METHODS FOR TREATING DISEASES” (Sanford Burnham Prebys Medical Discovery Institute, priority 2020, published 2023)
These are yes or no findings as the source states them, for the method shown. Some binding calls cover weakened binding; strength is not graded here.

Chains of the proteins cited; added tags and fusions are not shown. Residues count along the entry.
UniProt P29317, residues 24-976: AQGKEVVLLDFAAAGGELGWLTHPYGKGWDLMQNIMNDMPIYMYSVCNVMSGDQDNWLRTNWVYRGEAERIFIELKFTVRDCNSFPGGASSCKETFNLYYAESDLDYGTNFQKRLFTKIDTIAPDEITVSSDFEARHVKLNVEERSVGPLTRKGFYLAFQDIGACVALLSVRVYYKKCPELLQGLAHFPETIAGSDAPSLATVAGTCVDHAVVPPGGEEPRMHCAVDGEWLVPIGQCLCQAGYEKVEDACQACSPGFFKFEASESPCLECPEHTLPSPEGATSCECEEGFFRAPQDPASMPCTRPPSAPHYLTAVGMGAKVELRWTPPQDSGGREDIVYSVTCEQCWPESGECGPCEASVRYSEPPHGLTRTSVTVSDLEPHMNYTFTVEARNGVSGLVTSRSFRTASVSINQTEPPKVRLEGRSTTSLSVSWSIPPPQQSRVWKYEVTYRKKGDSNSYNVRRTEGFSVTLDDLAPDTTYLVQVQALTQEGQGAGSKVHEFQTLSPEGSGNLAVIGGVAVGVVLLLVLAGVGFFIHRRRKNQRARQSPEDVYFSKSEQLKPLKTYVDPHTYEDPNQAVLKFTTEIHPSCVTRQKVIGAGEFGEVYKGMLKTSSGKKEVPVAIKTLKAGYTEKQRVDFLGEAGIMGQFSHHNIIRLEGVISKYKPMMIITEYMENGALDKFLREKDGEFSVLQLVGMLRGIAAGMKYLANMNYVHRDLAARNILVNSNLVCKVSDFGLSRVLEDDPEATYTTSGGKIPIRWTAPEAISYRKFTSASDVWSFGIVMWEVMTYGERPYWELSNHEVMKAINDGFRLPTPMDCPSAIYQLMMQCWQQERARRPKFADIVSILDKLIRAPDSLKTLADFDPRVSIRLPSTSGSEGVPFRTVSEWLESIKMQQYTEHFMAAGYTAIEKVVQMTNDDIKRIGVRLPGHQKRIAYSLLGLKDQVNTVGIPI

Key:
[1] = target: EphA2 tagged at the C-terminus with mTURQ (donor) or EYFP (acceptor), transiently expressed in HEK293 cells (UniProt P29317); experiment: FRET efficiency against total receptor concentration, EphA2-mTURQ and EphA2-EYFP co-expressed in HEK293T cells, untreated
[2] = target: EphA2 tagged at the C-terminus with mTURQ (donor) or EYFP (acceptor), transiently expressed in HEK293 cells (UniProt P29317); experiment: quantitative FRET between EphA2-mTURQ and EphA2-EYFP in HEK293 cells, no ligand; self-association, monomer-dimer fit
[3] = target: EphA2 tagged at the C-terminus with mTURQ (donor) or EYFP (acceptor), transiently expressed in HEK293 cells (UniProt P29317); experiment: quantitative FRET between EphA2-mTURQ and EphA2-EYFP in HEK293 cells with saturating dimer (5); self-association, higher order oligomer fit
[4] = target: EphA2 tagged at the C-terminus with mTURQ (donor) or EYFP (acceptor), transiently expressed in HEK293 cells (UniProt P29317); experiment: quantitative FRET between EphA2-mTURQ and EphA2-EYFP in HEK293 cells with saturating dimer (2); self-association, higher order oligomer fit
[5] = target: EphA2 tagged at the C-terminus with mTURQ (donor) or EYFP (acceptor), transiently expressed in HEK293 cells (UniProt P29317); experiment: FRET efficiency against total receptor concentration, EphA2-mTURQ and EphA2-EYFP co-expressed in HEK293T cells, saturating dimer (2)
[6] = target: EphA2 tagged at the C-terminus with mTURQ (donor) or EYFP (acceptor), transiently expressed in HEK293 cells (UniProt P29317); experiment: FRET efficiency against total receptor concentration, EphA2-mTURQ and EphA2-EYFP co-expressed in HEK293T cells, saturating dimer (5)

Measured: binding

EphA2 tagged at the C-terminus with mTURQ (donor) or EYFP (acceptor), transiently expressed in HEK293 cells (from UniProt P29317 24-976) (receptor)
binds: all assays above
